Here are results for 11 compounds from the supplement of paper PMC10689618.

The structures appear in SMILES notation. Several values for one entry are separate records, joined by “and”; a condition that tells them apart may be missing. Equal values may be shown once. Where a name gives a salt, the structure may show the parent alone. The list shows a part of the results. Single values are uncertain, as repeats are few or missing.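 Labelled rat cortical synaptosomes were engulfed by primary human fetal astrocytes. Engulfment equaled a red/green ratio, corrected for calcein live-cell signal and normalized to the plate median. Compounds were toxic when calcein dropped over 30%, and reduced phagocytosis when below 70% of the median above 5 µM.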

Common to all, as to details: 24 h
In assay [1] the test system is Human fetal astrocytes. Briefly: loss of total cells relative to no-compound high-control median (toxicity); higher = more toxic (fewer cells).
Assay [2] relates to Human fetal astrocytes. Briefly: synaptosome phagocytosis (pHrodo/calcein intensity ratio) relative to plate median of data wells; higher = more phagocytosis.
For assay [3], the system named is Human fetal astrocytes. Briefly: loss of total cells relative to no-compound high-control median (toxicity); higher = more toxic (fewer cells). The source holds these as a separate data set.
Assay [4] deals with Human fetal astrocytes. The experiment in a line: synaptosome phagocytosis (pHrodo/calcein intensity ratio) relative to plate median of data wells; higher = more phagocytosis. The source holds these as a separate data set.

For the compound `CCc1nc(N)nc(N)c1-c1ccc(Cl)cc1`, the “loss of total cells” value was 13.4% in the assay with Human fetal astrocytes [1] (1.39 µM); -5.1% in the assay on Human fetal astrocytes [1] (2.78 µM); -12.5% in the assay on Human fetal astrocytes [1] (5.56 µM); 2.6% in the assay with Human fetal astrocytes [1] (11.11 µM); -0.9% with Human fetal astrocytes [1] (22.22 µM). Moreover, the synaptosome phagocytosis in the assay on Human fetal astrocytes [2] (1.39 µM) was 120%; in the assay on Human fetal astrocytes [2] (2.78 µM), 118%; with Human fetal astrocytes [2] (5.56 µM), 110%; in the assay with Human fetal astrocytes [2] (11.11 µM) it was 98.3%; in the assay on Human fetal astrocytes [2] (22.22 µM), 114%.

As to `O=C1O[C@H](CO)[C@@H](O)[C@H](O)[C@H]1O`, the “loss of total cells” value was 10.8% in the assay with Human fetal astrocytes [1] (1.39 µM); -9.5% with Human fetal astrocytes [1] (2.78 µM); -0.3% in the assay on Human fetal astrocytes [1] (5.56 µM); 16.4% in the assay with Human fetal astrocytes [1] (11.11 µM); -12.5% with Human fetal astrocytes [1] (22.22 µM). Moreover, the synaptosome phagocytosis is 80.9% with Human fetal astrocytes [2] (1.39 µM); 110% with Human fetal astrocytes [2] (2.78 µM); 97.3% in the assay on Human fetal astrocytes [2] (5.56 µM); 94.1% in the assay with Human fetal astrocytes [2] (11.11 µM); 87.8% in the assay with Human fetal astrocytes [2] (22.22 µM).

In the case of `CN1CCC(OC(c2ccccc2)c2ccccc2)CC1` [4-(benzhydryloxy)-1-methylpiperidine], the “loss of total cells” value is -8.6% in the assay on Human fetal astrocytes [1] (1.39 µM); -11.9% in the assay on Human fetal astrocytes [1] (2.78 µM); 0% with Human fetal astrocytes [1] (5.56 µM); -7.2% in the assay on Human fetal astrocytes [1] (11.11 µM); 22.2% in the assay on Human fetal astrocytes [1] (22.22 µM). In addition, the synaptosome phagocytosis was 109% in the assay on Human fetal astrocytes [2] (1.39 µM); 90.1% with Human fetal astrocytes [2] (2.78 µM); 91.6% with Human fetal astrocytes [2] (5.56 µM); 86.9% with Human fetal astrocytes [2] (11.11 µM); 84.5% in the assay on Human fetal astrocytes [2] (22.22 µM).

For the compound `COc1cc2c(cc1OC)-c1cc3ccc(OC)c(OC)c3c[n+]1CC2`, the “loss of total cells” value was 11.2% and -11.2% in the assay with Human fetal astrocytes [1] (1.39 µM); 9.7% and -1.1% in the assay on Human fetal astrocytes [1] (2.78 µM); 17.4% and 2.3% in the assay with Human fetal astrocytes [1] (22.22 µM). Further, the synaptosome phagocytosis with Human fetal astrocytes [2] (1.39 µM) is 123% and 111%; with Human fetal astrocytes [2] (22.22 µM), 65.3% and 66.5%.

`CC1=C(/C=C/C(C)=C/C=C/C(C)=C/C=C/C=C(C)/C=C/C=C(C)/C=C/C2=C(C)C(=O)[C@@H](O)CC2(C)C)C(C)(C)C[C@H](O)C1=O`: the “loss of total cells” value was -35.2% in the assay with Human fetal astrocytes [1] (1.39 µM); -7.6% in the assay with Human fetal astrocytes [1] (2.78 µM); -15.4% in the assay on Human fetal astrocytes [1] (5.56 µM); -10.8% in the assay with Human fetal astrocytes [1] (11.11 µM); -7.4% with Human fetal astrocytes [1] (22.22 µM). In addition, the synaptosome phagocytosis in the assay with Human fetal astrocytes [2] (1.39 µM) was 80.2%; in the assay with Human fetal astrocytes [2] (2.78 µM), 112%; in the assay on Human fetal astrocytes [2] (5.56 µM) it was 106%; in the assay on Human fetal astrocytes [2] (11.11 µM), 87.5%; in the assay on Human fetal astrocytes [2] (22.22 µM) it was 126%.

As to `O=C(O)C1(C(=O)O)CCC1.[NH2-].[NH2-].[Pt+2]` [Carboplatin], the “loss of total cells” value with Human fetal astrocytes [3] (1.39 µM) was -23.5%; in the assay with Human fetal astrocytes [3] (2.78 µM) it was -9%; in the assay on Human fetal astrocytes [3] (5.56 µM), -2.3%; in the assay with Human fetal astrocytes [3] (11.11 µM) it was -7.6%; with Human fetal astrocytes [3] (22.22 µM), -10.9%. Further, the synaptosome phagocytosis in the assay with Human fetal astrocytes [4] (1.39 µM) was 92.2%; in the assay with Human fetal astrocytes [4] (2.78 µM) it was 103%; in the assay with Human fetal astrocytes [4] (5.56 µM), 83.8%; in the assay on Human fetal astrocytes [4] (11.11 µM), 92.2%; in the assay with Human fetal astrocytes [4] (22.22 µM) it was 91%.

On to `Cc1nc2n(c(=O)c1CCN1CCC(c3noc4cc(F)ccc34)CC1)CCCC2` [Risperidone], for which the “loss of total cells” value is -0.9% in the assay with Human fetal astrocytes [3] (1.39 µM); -14.7% with Human fetal astrocytes [3] (2.78 µM); -9.6% in the assay with Human fetal astrocytes [3] (5.56 µM); 3.4% in the assay on Human fetal astrocytes [3] (11.11 µM); -1.6% in the assay with Human fetal astrocytes [3] (22.22 µM). The synaptosome phagocytosis in the assay on Human fetal astrocytes [4] (1.39 µM) was 87.8%; in the assay on Human fetal astrocytes [4] (2.78 µM) it was 91.7%; in the assay on Human fetal astrocytes [4] (5.56 µM), 94%; in the assay with Human fetal astrocytes [4] (11.11 µM), 114%; with Human fetal astrocytes [4] (22.22 µM), 87.9%.

`Cc1c(N)c(=O)n(-c2ccccc2)n1C`: the “loss of total cells” value in the assay on Human fetal astrocytes [1] (1.39 µM) was 19.2%; with Human fetal astrocytes [1] (2.78 µM), 11.3%; in the assay with Human fetal astrocytes [1] (5.56 µM), -23.7%; in the assay on Human fetal astrocytes [1] (11.11 µM), 55.5%; with Human fetal astrocytes [1] (22.22 µM), 8.5%. Besides, the synaptosome phagocytosis in the assay with Human fetal astrocytes [2] (1.39 µM) was 136%; with Human fetal astrocytes [2] (2.78 µM), 128%; in the assay with Human fetal astrocytes [2] (5.56 µM), 108%; in the assay with Human fetal astrocytes [2] (11.11 µM) it was 168%; in the assay with Human fetal astrocytes [2] (22.22 µM), 116%.

As for `CN1Cc2c(N)cccc2C(c2ccccc2)C1` (stereo not given) [Nomifensine maleate], the “loss of total cells” value is 24.2% in the assay with Human fetal astrocytes [1] (1.39 µM); -38.1% in the assay on Human fetal astrocytes [1] (2.78 µM); 14.3% in the assay on Human fetal astrocytes [1] (5.56 µM); -1% in the assay with Human fetal astrocytes [1] (11.11 µM); 4.7% in the assay on Human fetal astrocytes [1] (22.22 µM). For the same compound, the synaptosome phagocytosis in the assay on Human fetal astrocytes [2] (1.39 µM) was 123%; with Human fetal astrocytes [2] (2.78 µM) it was 96.9%; with Human fetal astrocytes [2] (5.56 µM), 115%; in the assay with Human fetal astrocytes [2] (11.11 µM), 57.1%; in the assay on Human fetal astrocytes [2] (22.22 µM), 101%.

For the compound `CNC(=C[N+](=O)[O-])NCCSCc1csc(CN(C)C)n1`, the “loss of total cells” value with Human fetal astrocytes [1] (1.39 µM) was 8.3%; in the assay with Human fetal astrocytes [1] (2.78 µM) it was 12%; in the assay with Human fetal astrocytes [1] (5.56 µM), 35.1%; in the assay on Human fetal astrocytes [1] (11.11 µM), 32.3%; with Human fetal astrocytes [1] (22.22 µM) it was -24.8%. Moreover, the synaptosome phagocytosis in the assay with Human fetal astrocytes [2] (1.39 µM) is 72.9%; in the assay on Human fetal astrocytes [2] (2.78 µM), 107%; in the assay on Human fetal astrocytes [2] (5.56 µM), 159%; in the assay on Human fetal astrocytes [2] (11.11 µM), 109%; in the assay on Human fetal astrocytes [2] (22.22 µM) it was 102%.

Regarding `CCOc1ccc(C(=O)c2ccc(O)c(O)c2O)cc1`, the “loss of total cells” value in the assay with Human fetal astrocytes [1] (1.39 µM) was -11.2%; in the assay on Human fetal astrocytes [1] (2.78 µM), -6.6%; in the assay with Human fetal astrocytes [1] (5.56 µM), 25.2%; in the assay with Human fetal astrocytes [1] (11.11 µM) it was 41.3%; in the assay on Human fetal astrocytes [1] (22.22 µM), 1.1%. The synaptosome phagocytosis is 111% in the assay with Human fetal astrocytes [2] (1.39 µM); 114% with Human fetal astrocytes [2] (2.78 µM); 143% in the assay with Human fetal astrocytes [2] (5.56 µM); 110% with Human fetal astrocytes [2] (11.11 µM); 94.3% in the assay on Human fetal astrocytes [2] (22.22 µM).
